Results published in publication PMC3711072.
Results are given in words; binding and its absence hold for the method and conditions named. Some binding calls cover weakened binding; strength is not graded here. Blank lines part the entries; values can stand above or below the binder they belong to.

Chains of the proteins cited; added tags and fusions are not shown.
UniProt P51677: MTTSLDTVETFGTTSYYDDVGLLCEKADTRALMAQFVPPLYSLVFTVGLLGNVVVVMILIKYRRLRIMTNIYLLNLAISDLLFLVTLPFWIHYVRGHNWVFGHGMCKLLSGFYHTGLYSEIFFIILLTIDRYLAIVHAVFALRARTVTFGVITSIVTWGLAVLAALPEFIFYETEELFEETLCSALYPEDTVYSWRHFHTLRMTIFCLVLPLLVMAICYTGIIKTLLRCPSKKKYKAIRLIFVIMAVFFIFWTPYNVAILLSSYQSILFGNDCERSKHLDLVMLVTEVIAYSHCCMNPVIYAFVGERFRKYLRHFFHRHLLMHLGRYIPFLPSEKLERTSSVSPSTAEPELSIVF

How the values were obtained:
CCR3 = CCR3 (UniProt P51677); assay: radioligand binding; equilibrium competition binding of 125I-CCL18 on L1.2/CCR3 transfectants, increasing concentration of unlabelled competitor; only the binder purified
[1] = target: T1, CC chemokine ligand 18 (CCL18) (human), P55774; assay: SEC; 500 ug CCL18 and an equimolar amount of Evasin incubated 45 min at RT in PBS, Superdex 75 in PBS, 1.5 ml/min, calibrated column; fractions on silver stained SDS-PAGE; CCL18 and Evasins also run alone; both purified; settings: remark: other sources report otherwise
T1 chain: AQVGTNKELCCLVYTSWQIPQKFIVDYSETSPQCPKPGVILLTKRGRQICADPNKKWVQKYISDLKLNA

binding (CCR3): binds
B1: Radiolabeled CCL18 (125I-CCL18) (ligand, UniProt P55774 21-89)
chain: T1 chain
modifications: 125I label (radiolabeled; residue not stated)

binding [1]: no binding
B2: CC chemokine ligand 18 (CCL18), P55774 21-89 (ligand)
chain: T1 chain
